These are yes or no findings as the source states them, for the method shown. Binding seen in cells or lysates may run through a third protein. Some entries that bind do so weakly or less than the wild type. For part of these data: Tags and fused reporters may be left off the sequences shown.
What was measured:
Experiment in all cases: co-IP; RIPA lysates, 1 mg protein with 10 μg anti-Flag or IgG overnight at 4 °C, protein A/G magnetic beads, SDS-PAGE and blot
[1] = target: T1, Synaptotagmin-4 (SYT4), overexpressed in cells (UniProt Q9H2B2)
T1 sequence: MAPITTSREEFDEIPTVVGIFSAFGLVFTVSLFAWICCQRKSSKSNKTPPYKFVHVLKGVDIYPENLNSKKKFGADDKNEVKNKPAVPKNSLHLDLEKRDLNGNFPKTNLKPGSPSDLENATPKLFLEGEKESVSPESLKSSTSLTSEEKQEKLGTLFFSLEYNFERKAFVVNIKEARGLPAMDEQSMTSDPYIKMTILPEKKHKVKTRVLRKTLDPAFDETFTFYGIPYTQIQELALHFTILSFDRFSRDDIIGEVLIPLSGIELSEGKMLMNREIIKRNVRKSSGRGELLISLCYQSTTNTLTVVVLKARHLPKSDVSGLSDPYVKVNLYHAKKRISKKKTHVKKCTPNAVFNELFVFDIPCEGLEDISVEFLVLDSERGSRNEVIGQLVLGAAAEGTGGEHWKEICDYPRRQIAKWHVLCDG

Protein sequences, listed by entry. Tags and fused reporters are not part of them.
UniProt P62333: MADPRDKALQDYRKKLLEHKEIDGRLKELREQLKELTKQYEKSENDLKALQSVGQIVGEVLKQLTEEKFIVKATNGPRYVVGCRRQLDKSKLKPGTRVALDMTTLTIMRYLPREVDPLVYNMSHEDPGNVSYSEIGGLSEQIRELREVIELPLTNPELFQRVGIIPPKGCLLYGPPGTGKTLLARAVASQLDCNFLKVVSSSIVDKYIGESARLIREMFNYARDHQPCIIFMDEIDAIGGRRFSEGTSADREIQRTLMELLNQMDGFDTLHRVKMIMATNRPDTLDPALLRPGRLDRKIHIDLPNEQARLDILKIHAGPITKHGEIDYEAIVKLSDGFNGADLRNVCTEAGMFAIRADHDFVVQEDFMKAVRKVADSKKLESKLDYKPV

[2] = target: T2, Full-length SYT4 (construct of the truncation series) (UniProt Q9H2B2)
T2 sequence: T1 sequence

[3] = target: T3, SYT4-C2B mutant (amino acids 288-423) (UniProt Q9H2B2)
T3 sequence: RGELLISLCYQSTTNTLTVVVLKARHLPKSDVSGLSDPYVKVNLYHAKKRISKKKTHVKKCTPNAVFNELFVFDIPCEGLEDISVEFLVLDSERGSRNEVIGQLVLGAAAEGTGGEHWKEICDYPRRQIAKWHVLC

Measured: binding

Proteasome 26S subunit ATPase 6 (PSMC6), in cell lysate (from UniProt P62333 1-389)
binds: all assays above
